PubChem BioAssay AID652243 | Drosophila RNAi Screening Center, 2013
Screen: 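Fly genes required for human androgen receptor driven transcription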 (primary screen). Cells: Drosophila S2R+ cells. Reagent: long dsRNA against Drosophila genes. Duration: 72 h (48 h, then 24 h hormone). Challenge: synthetic androgen R1881 at 10 nM for 24 h. Measured: 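Per-well raw luminescence of the androgen-driven firefly reporter and of the Renilla control, two replicates each, without normalisation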. Reading the numbers: firefly reporter light: higher = more light from androgen-responsive reporter; Renilla control light: higher = more constitutive control signal (cell number, transfection). Rule for the call: 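Hit when the log firefly-to-Renilla ratio dropped or increased by a fixed fold versus the mean of GFP or LacZ controls across duplicate plates; lowering cut given as 1.5 and as 3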. Meaning of the calls: active = hit: reporter lowered or raised; inactive = no hit.
The screen tested about 24,000 reagents; below is a random part of those with a known target gene and a result. Over the whole deposit, 246 (1%) were called active. 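Plates not normalised; calls are printed but the firefly/Renilla ratio behind them is not deposited; fold cut for lowering reported inconsistently.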 Raw values vary from plate to plate and are shown uncorrected. Not given: the amount of reagent.

Target gene | amplicon | firefly reporter light, replicate 1 | firefly reporter light, replicate 2 | Renilla control light, replicate 1 | Renilla control light, replicate 2 | Call
CG7376 | DRSC10829 | 7.56e5 | 1.17e6 | 1.04e6 | 2.05e6 | inactive
elg1 | DRSC10229 | 62946 | 51670 | 5.59e5 | 4.32e5 | inactive
elg1 | DRSC27844 | 1.14e6 | 4.19e5 | 3.37e6 | 1.38e6 | inactive
Iris | DRSC00663 | 8.52e5 | 1.02e6 | 1.57e6 | 1.37e6 | inactive
Wdr37 | DRSC14500 | 72600 | 57242 | 6.33e5 | 5.90e5 | inactive
CG2267 | DRSC15435 | 1.06e5 | 73581 | 2.05e6 | 2.27e6 | inactive
CG11902 | DRSC14434 | 4.95e5 | 7.17e5 | 1.83e6 | 2.25e6 | inactive
CG11902 | DRSC28805 | 3.60e5 | 3.86e5 | 8.10e5 | 8.67e5 | inactive
CG31515 | DRSC13610 | 1.24e5 | 1.46e5 | 2.74e5 | 2.62e5 | inactive
obst-I | DRSC08339 | 1.32e6 | 1.24e6 | 2.04e6 | 1.91e6 | inactive
Nse1 | DRSC02147 | 9.84e5 | 1.23e6 | 1.58e6 | 1.80e6 | inactive
hec | DRSC19895 | 5.81e5 | 4.84e5 | 3.55e6 | 3.29e6 | inactive
CG11122 | DRSC19382 | 1.28e5 | 86937 | 7.07e5 | 7.76e5 | inactive
CG11122 | DRSC27302 | 2.71e5 | 2.51e5 | 7.11e5 | 5.65e5 | inactive
CG5989 | DRSC10565 | 8.63e5 | 7.32e5 | 1.07e6 | 8.51e5 | inactive
spn-F | DRSC14475 | 62130 | 42074 | 5.09e5 | 3.77e5 | inactive
spn-F | DRSC29328 | 4.98e5 | 5.56e5 | 1.28e6 | 1.28e6 | inactive
CG8067 | DRSC07065 | 9.79e5 | 1.07e6 | 1.08e6 | 1.04e6 | inactive
PTPMT1 | DRSC14235 | 1.32e5 | 1.76e5 | 1.90e6 | 2.29e6 | inactive
CG32986 | DRSC02509 | 3.20e5 | 2.47e5 | 1.70e6 | 1.57e6 | inactive
moody | DRSC18515 | 2.21e5 | 2.80e5 | 3.64e6 | 3.74e6 | inactive
Asph | DRSC06783 | 93553 | 1.74e5 | 1.86e6 | 1.86e6 | inactive
Asph | DRSC07171 | 1.08e6 | 8.62e5 | 1.95e6 | 1.58e6 | inactive
Asph | DRSC29507 | 2.79e5 | 4.40e5 | 6.93e5 | 6.93e5 | inactive
wap | DRSC20626 | 76378 | 78737 | 5.61e5 | 5.76e5 | inactive
Adck1 | DRSC04394 | 8.18e5 | 7.95e5 | 1.33e6 | 1.39e6 | active
Adck1 | DRSC36882 | – | – | – | – | inactive
CG12237 | DRSC19449 | 2.96e5 | 3.96e5 | 2.15e6 | 2.74e6 | inactive
CG12237 | DRSC22256 | 5.31e5 | 7.63e5 | 8.20e5 | 9.02e5 | inactive
CG12237 | DRSC24647 | 1.03e6 | 1.06e6 | 1.27e6 | 1.33e6 | inactive
SPH93 | DRSC02978 | 1.37e5 | 1.38e5 | 1.95e6 | 2.14e6 | inactive
Hesr | DRSC19965 | 8.37e5 | 6.87e5 | 5.16e6 | 5.24e6 | inactive
beg | DRSC10923 | 26956 | 40022 | 6.44e5 | 5.09e5 | inactive
CG32797 | DRSC25152 | 5.34e5 | 6.63e5 | 1.62e6 | 1.85e6 | inactive
Gdap2 | DRSC06789 | 5.16e5 | 4.46e5 | 2.39e6 | 2.06e6 | inactive
Gdap2 | DRSC06790 | 4.72e5 | 4.64e5 | 2.13e6 | 1.88e6 | inactive
VhaAC45RP | DRSC15423 | 5.55e5 | 5.79e5 | 3.38e6 | 4.41e6 | inactive
VhaAC45RP | DRSC26986 | 4.20e5 | 3.50e5 | 7.64e5 | 6.87e5 | inactive
mRpL48 | DRSC00506 | 1.02e5 | 73151 | 6.67e5 | 7.33e5 | inactive
Cpr49Ah | DRSC07204 | 1.69e5 | 1.68e5 | 8.51e5 | 1.33e6 | inactive
Cpr49Ah | DRSC29547 | 5.40e5 | 1.05e6 | 1.43e6 | 1.43e6 | inactive

No new results follow: 4 of the entries above.
Target gene | amplicon | firefly reporter light, replicate 1 | firefly reporter light, replicate 2 | Renilla control light, replicate 1 | Renilla control light, replicate 2 | Call
wap | DRSC20626 | 76378 | 78737 | 5.61e5 | 5.76e5 | inactive
Adck1 | DRSC04394 | 8.18e5 | 7.95e5 | 1.33e6 | 1.39e6 | active
Adck1 | DRSC36882 | – | – | – | – | inactive
CG12237 | DRSC19449 | 2.96e5 | 3.96e5 | 2.15e6 | 2.74e6 | inactive
